Measurements reported in article PMC8011081, “Bio-guided isolation of anti-leishmanial natural products from Diospyros gracilescens L. (Ebenaceae)” (BMC Complementary Medicine and Therapies, 2021).

Experiments:
[1] = test system: L. donovani promastigotes (MHOM/SD/62/1S); test: Inhibitory assay against L. donovani promastigotes (resazurin colorimetric assay); format: cell-based, Leishmania donovani; details: CC50/IC50; isolated compounds
Method: The cryopreserved promastigote form of L. donovani (1S (MHOM/SD/62/1S) was obtained from Bei Resources (https://www.beiresources.org/) and is routinely cultured at the Antimicrobial and Biocontrol Agents Unit, University of Yaoundé I, in Medium 199 (Sigma, Darmstadt, Germany) supplemented with 10% Heat-Inactivated fetal Bovine Serum (HIFBS) (Sigma, Darmstadt, Germany) and 100 IU/mL penicillin and 100 μg/mL streptomycin. The culture was maintained in 75 Cm^2 cell culture flask at 28 °C and checked for growth daily and sub-cultured everyday 72 h.
The stock solutions were prepared by dissolving each sample in 100% dimethyl sulfoxide (DMSO) and subsequently diluted serially in non-supplemented culture medium. […] The viability rate of promastigotes positively correlated with the amount of pink resorufin that was produced through the reduction of blue resazurin by the dehydrogenase enzymes in the inner mitochondrial membrane of the living parasites. […] After an additional incubation for 44 h, plates were then read on a Magelan Infinite M200 fluorescence multi-well plate reader (Tecan, Männedorf, Switzerland) at an excitation and emission wave lengths of 530 and 590 nm respectively.

L. donovani amastigotes = test: Inhibitory assay against intracellular L. donovani amastigotes in Raw 264.7 macrophages (resazurin); format: cell-based, Leishmania donovani; details: CC50/IC50; isolated compounds
Method: The effect of plant isolates against the intracellular amastigote form of L. donovani was evaluated essentially as described by Jain et al. with some modifications. Briefly, macrophage Raw 264.7 cells ([…]) were seeded in 96 well plates and incubated for 6 h at 37 °C under 5% CO2 for adhesion of the cells. Afterwards, the non-adherent cells were washed-out with sterile PBS. The adherent Raw 264.7 cells were infected with metacyclic promastigotes (4 × 10^5 cells) at an infection ratio of 1:10 macrophage: parasites and incubated for 24 h at 37 °C under 5% CO2 in order to allow infection of macrophages by metacyclic promastigotes. Thereafter, the overlying medium was removed, and the monolayer cells with internalized amastigotes were carefully washed four times with PBS to remove free parasites. […] Resazurin reagent (250 μg/mL) was thereafter added in each well and the plates were incubated for 24 h followed by fluorescence recording at λexcitation = 530 nm and λemission = 590 nm using a Tecan Infinite M200 microplate reader (Tecan). Inhibition percentages were calculated using Microsoft Excel Software and median inhibitory concentration (IC50) obtained from dose-response curves using GraphPad Prism 5.0. […]

`OC1CC(O)C(O)C(O)C1O` (centres unmarked) [1-deoxyinositol (7), 1-deoxyinositol] was tested, and the “SI (Promastigotes)” value [1] was > 5.04 and the “SI (Amastigotes)” value (L. donovani amastigotes) was > 10.15.
